At least one structure is not confirmed: it was looked up by name or label, or the drawing left a doubt.
System: cultured cell lines
Experiment: Iron redox changes in cultured cell lines with ferroptosis inducers and NCOA4 regulators
Format: cell-based
Details: sensors delivered with transfection reagents

`CCOc1ccccc1-n1c(C(C)N2CCN(C(=O)COc3ccc(Cl)cc3)CC2)nc2ccccc2c1=O` (stereo not shown) [Erastin] was tested, and the “Fe^3+/Fe^2+ ratio during induced ferroptosis” value was “increased”.
